# In PubChem BioAssay (NCATS):
# Inconclusive results, whose numbers are uncertain, are shown with a selection of clear calls. A potency beside an inconclusive call is a rough fit, not a confirmed value. Active and inactive are the calls of the source. The call rests on the fitted dose curve; in most records, active means well fitted cell-killing curve with a large enough effect; inconclusive means small, poorly fitted or top-dose-only effect, or effect the other way; inactive means no such curve, though single readings can be large or run the other way. Where a SMILES comes first, the peptide text is derived from it. Residues, ends and D or L forms follow the SMILES beside them. [ ]: non-standard residue; d: D form. The star is where a group is joined. Sta = CC(C)C[C@H](N)[C@@H](O)CC(=O)O; Isovaleryl = CC(C)CC(=O)*
# Test: Quantitative High-Throughput drug screen in 47 multiple myeloma cell lines against the NCATS MIPE library collection: Delta47_JCRB cell viability assay (AID 1918925; further: nearly all actives have a fitted effect of over 45% in size;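 on viability (% of DMSO): 0% = media-only wells and 100% = DMSO-only wells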)
# Conditions: Delta47 myeloma viability, CellTiter-Glo ATP, 48 h; viability (% of DMSO): at 45.8 µM (top of the series) unless noted
# How it was run: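 Steps: seed 500 cells per well; pin-transfer MIPE 4.0 library; incubate 48 h at 37C, 5% CO2, humidified; add CellTiter-Glo, 5 min room temperature; read luminescence.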
# Potency means the concentration at half of the fitted maximal effect.
Structure (SMILES),viability (% of DMSO),Potency
CC(C)C1CCC(C(=O)N[C@H](Cc2ccccc2)C(=O)O)CC1 (stereo partly drawn),inactive: 76.2%,–
Cn1cnc2c1c(=O)[nH]c(=O)n2C,–,active: 14.8 µM
Clc1ccc(C(Cn2ccnc2)OCc2ccsc2Cl)c(Cl)c1 (stereo not drawn),–,"inconclusive: 23.5 µM [cytotoxic, single point]"
CCC(=O)NC[C@H](Cc1ccc(OCCc2nc(-c3ccccc3)oc2C)cc1)NC(C)=CC(=O)c1ccc(C(F)(F)F)cc1,inactive: 93.8%,–
CCCCCCCCCCCC(CC1OC(=O)C1CCCCCC)OC(=O)C(CC(C)C)NC=O (stereo not drawn),–,"inconclusive: 0.264 µM [cytotoxic, full curve, poor fit]"
CC1CC2C3CCC4=CC(=O)C=C[C@]4(C)[C@@]3(F)[C@@H](O)C[C@]2(C)[C@@]1(O)C(=O)CO (stereo partly drawn),–,"inconclusive: 10.5 µM [cytotoxic, partial curve, poor fit]"
Cn1cc(C=C2C(=O)Nc3cccnc32)c2ccccc21,–,"inconclusive: 18.7 µM [cytotoxic, partial curve, poor fit]"
Nc1nc(OCc2ccccc2)c2[nH]cnc2n1,–,"inconclusive: 11.8 µM [cytotoxic, full curve, poor fit]"
C=CCc1cc(OC)c(O)c(C(=O)NCCO)c1,inactive: 110%,–
COCCCOc1cc(C[C@@H](C[C@H](N)[C@@H](O)C[C@H](C(=O)NCC(C)(C)C(N)=O)C(C)C)C(C)C)ccc1OC,–,"inconclusive: 0.0033 µM [rising, full curve, poor fit]"
COC(=O)[C@H](Cc1ccccc1)NC(=O)[C@@H](N)CC(=O)O (H-Asp-Phe-OMe),inactive: 102%,–
O=C(C=Cc1cccnc1)NCCCCC1CCN(C(=O)c2ccccc2)CC1,–,"inconclusive: 0.209 µM [cytotoxic, full curve, poor fit]"
C[N+]1(C)[C@@H]2CC(OC(=O)[C@H](CO)c3ccccc3)C[C@H]1[C@H]1O[C@@H]12 (stereo partly drawn),inactive: 148%,–
Cc1ncc([N+](=O)[O-])n1CCO,inactive: 136%,–
CNS(=O)(=O)Cc1ccc2[nH]cc(CCN(C)C)c2c1,–,"inconclusive: 1.05 µM [rising, full curve, poor fit]"
CC[C@H](NC(C)C)[C@H](O)c1ccc(O)c2[nH]c(=O)ccc12,inactive: 104%,–
CC(C)Nc1cc(C(F)(F)F)cc2nc(NC(=O)c3cccnc3)nn12,–,"inconclusive: 0.833 µM [rising, partial curve, poor fit]"
CN[C@@H](C)[C@H]1[C@H](O)C[C@@]2(C)[C@@H]3CC[C@H]4C(C)(C)[C@@H](NC)CC[C@@]45C[C@@]35CC[C@]12C,inactive: 95.2%,–
CCn1cc(C(=O)O)c(=O)c2cc(F)c(N3CCNCC3)nc21,inactive: 67.3%,–

# A few values from the entries so far.
# Under viability (% of DMSO), `CCC(=O)NC[C@H](Cc1ccc(OCCc2nc(-c3ccccc3)oc2C)cc1)NC(C)=CC(=O)c1ccc(C(F)(F)F)cc1` reads inactive: 93.8%
# Under Potency, `COCCCOc1cc(C[C@@H](C[C@H](N)[C@@H](O)C[C@H](C(=O)NCC(C)(C)C(N)=O)C(C)C)C(C)C)ccc1OC` reads inconclusive: 0.0033 µM [rising, full curve, poor fit]

# More records:

Structure (SMILES),viability (% of DMSO),Potency
CC[C@H](C=C[C@@H](C)[C@H]1CC[C@H]2[C@@H]3CC=C4C[C@@H](O)CC[C@]4(C)[C@@H]3CC[C@]12C)C(C)C,–,"inconclusive: 18.2 µM [cytotoxic, single point]"
CC1COc2c(N3CCN(C)CC3)c(F)cc3c(=O)c(C(=O)O)cn1c23 (stereo not drawn),inactive: 127%,–
Cc1cccc(-c2nn(C(=S)Nc3ccccc3)cc2-c2ccnc3ccccc23)n1,–,active: 16.6 µM
O=C(O)c1ccc(-c2c[nH]c3ncc(-c4ccccc4)cc23)cc1C1CCCC1,–,"inconclusive: 10.5 µM [cytotoxic, partial curve, poor fit]"
CN1C(C(=O)Nc2ccccn2)=C(O)c2ccccc2S1(=O)=O,–,"inconclusive: 4.18 µM [cytotoxic, full curve, poor fit]"
COC(=O)N1CCN(Cc2cccc(NC(=O)Nc3ccc(C)nc3)c2F)CC1,–,"inconclusive: 0.935 µM [cytotoxic, full curve, poor fit]"
Cc1nccn1CC1CCc2c(c3ccccc3n2C)C1=O (stereo not drawn),–,"inconclusive: 33.2 µM [cytotoxic, single point]"
CC[C@H]1OC(=O)[C@H](C)[C@@H](O[C@H]2C[C@@](C)(OC)[C@@H](O)[C@H](C)O2)[C@H](C)[C@@H](O[C@@H]2O[C@H](C)C[C@H](N(C)C)[C@H]2O)[C@](C)(O)C[C@H](C)C(=NOCOCCOC)[C@H](C)[C@@H](O)[C@]1(C)O,inactive: 92.3%,–
CC1(C)CCC[C@@]2(C)[C@@H]1CC[C@@]1(C)OC(=O)C[C@H]21,inactive: 101%,–
COc1ncnc(NS(=O)(=O)c2ccc(N)cc2)c1OC,inactive: 111%,–
C[C@@]1(c2cc(-c3cncnc3)c(F)cc2F)CCSC(N)=N1,inactive: 132%,–
COc1ccc(Nc2nccc(NCCO)n2)cc1,–,"inconclusive: 0.0019 µM [rising, full curve, poor fit]"
c1ccc2c(-c3cnn4cc(-c5ccc(N6CCNCC6)cc5)cnc34)ccnc2c1,–,"inconclusive: 1.18 µM [cytotoxic, full curve, poor fit]"
OC[C@H]1O[C@@H](Oc2ccc(O)cc2)[C@H](O)[C@@H](O)[C@H]1O,inactive: 104%,–
Cc1ccc(O)c(C(CCN(C(C)C)C(C)C)c2ccccc2)c1 (stereo not drawn),–,"inconclusive: 14.8 µM [cytotoxic, partial curve, poor fit]"
CCC[C@H](N[C@@H](C)C(=O)N1[C@@H]2CCCC[C@H]2C[C@H]1C(=O)O)C(=O)OCC,–,"inconclusive: 0.0118 µM [cytotoxic, full curve, poor fit]"
CC1(C)[C@H](C(=O)O)N2C(=O)C[C@H]2S1(=O)=O,inactive: 142%,–
CC(C)CC(=O)N[C@H](C(=O)N[C@H](C(=O)N[C@@H](CC(C)C)[C@@H](O)CC(=O)N[C@@H](C)C(=O)N[C@@H](CC(C)C)[C@@H](O)CC(=O)O)C(C)C)C(C)C (Isovaleryl-VV[Sta]A[Sta]-OH),–,"inconclusive: 20.9 µM [cytotoxic, partial curve, poor fit]"
O=C(O)C1=CC(O)C(O)[C@H](O)C1 (stereo partly drawn),inactive: 118%,–
